Measured values reported in patent US20090221056A1, “Pathogen-Detecting Cell Preservation Systems” (priority 2005, published 2009).
Entries after “also recorded” stand apart in the source; their conditions may differ. For at least one compound, name, drawing or mass did not settle the structure.

What was measured:
[1] = tested on: CANARY B cells; assay: Viability of CANARY cells after storage with chemical additives; assay type: cell-based; conditions: storage at 4° C. (refrigerated)
[2] = tested on: CANARY B cells (expressing a receptor specific for Yersinia pestis); assay type: cell-based

COC[C@H]1OC(=O)c2coc3c2[C@@]1(C)C1=C(C3=O)[C@@H]2CCC(=O)[C@@]2(C)C[C@H]1OC(C)=O [wortmannin]
viability of cells stored at 4° C. [1]: increased both viability and antigen-detection activity; also recorded: improved both viability and activity | activity (antigen detection) of cells stored at 4° C. [2]: increased both viability and antigen-detection activity; also recorded: improved both viability and activity | beneficial effect on stored cells (viability and/or activity) [2]: beneficial effects
